These are yes or no findings as the source states them, for the method shown. Binding seen in cells or lysates may run through a third protein. Some results given as binding are weak or reduced against the parent protein; the word gives no strength.
What was measured:
[1] = molecular target: epidermal growth factor receptor (EGFR) (human) (UniProt P00533); test: co-immunoprecipitation from human fibroblast lysates, Western blot
[2] = molecular target: epidermal growth factor receptor (EGFR) (human) (UniProt P00533); test: co-immunoprecipitation from human fibroblast lysates, Western blot (FIG. 15 legend)
[3] = molecular target: epidermal growth factor receptor (EGFR) (human) (UniProt P00533); test: co-immunoprecipitation from old human fibroblast lysates (anti-EGFR or anti-caveolin-1 antibody, protein A-Sepharose), Western blot

The chains behind the UniProt entries cited, without tags or fusion partners. Where a name states a change or a piece, a line headed by the entry shows the natural chain unless it says otherwise.
UniProt Q03135: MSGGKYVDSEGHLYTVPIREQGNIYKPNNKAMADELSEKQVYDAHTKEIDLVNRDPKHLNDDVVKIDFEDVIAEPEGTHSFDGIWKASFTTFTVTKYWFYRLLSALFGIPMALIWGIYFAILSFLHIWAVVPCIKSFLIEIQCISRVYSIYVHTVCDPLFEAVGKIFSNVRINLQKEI

- binding [1]: binds
- binding [2]: binds
- binding [3]: binds
Substance: caveolin-1 protein (from UniProt Q03135 2-178)
